Assay results as given in publication PMC7296024.

Tests used:
[1] = biological target: T1, Flag-EPN3 (full-length human Epsin 3 overexpressed in MCF10A cells) (human) (UniProt Q9H201); assay: co-IP; MCF10A-Ctr and MCF10A-EPN3 cells, EGF starved overnight, cross-linked with 1% formaldehyde for 10 min at RT, lysed in RIPA buffer and sonicated; 1 mg lysate, IP with anti-EPN3 rabbit polyclonal Ab (or control IgG) and Protein G, 4 washes in RIPA; immunoblot of partners
T1 sequence: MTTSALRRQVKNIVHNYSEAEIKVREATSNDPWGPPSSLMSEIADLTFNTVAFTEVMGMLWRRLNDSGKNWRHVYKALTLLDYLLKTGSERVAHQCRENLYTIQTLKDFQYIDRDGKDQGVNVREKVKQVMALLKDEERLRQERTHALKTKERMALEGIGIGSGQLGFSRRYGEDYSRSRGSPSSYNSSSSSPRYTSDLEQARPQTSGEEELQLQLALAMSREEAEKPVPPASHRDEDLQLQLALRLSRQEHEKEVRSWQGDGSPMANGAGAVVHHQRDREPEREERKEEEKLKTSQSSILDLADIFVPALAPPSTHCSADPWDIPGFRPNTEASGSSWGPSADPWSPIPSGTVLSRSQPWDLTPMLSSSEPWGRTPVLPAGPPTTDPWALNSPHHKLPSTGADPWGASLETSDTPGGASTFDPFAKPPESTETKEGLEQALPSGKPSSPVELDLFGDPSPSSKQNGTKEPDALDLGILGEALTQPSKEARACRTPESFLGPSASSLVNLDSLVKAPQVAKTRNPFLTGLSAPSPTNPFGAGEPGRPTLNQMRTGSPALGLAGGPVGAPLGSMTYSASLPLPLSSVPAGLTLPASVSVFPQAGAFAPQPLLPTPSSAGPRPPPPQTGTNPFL

[2] = biological target: T2, Epsin 3 (EPN3), endogenous in MCF10A-Ctr cells (human (endogenous in MCF10A)) (UniProt Q9H201); assay: as above
T2 sequence: T1 sequence

[3] = biological target: T3, EPN3 as it stood in the in situ proximity ligation assay (human) (UniProt Q9H201); assay: proximity ligation; in situ Duolink PLA (O-link Bioscience, Detection Reagents Orange) for ECAD and EPN3 in cells, with or without TGFβ treatment
T3 sequence: T1 sequence

Row | binding [1] | binding [2] | binding [3] | Substance
1 | binds | binds | binds | E-cadherin (ECAD) (human (endogenous in MCF10A))
2 | binds | binds | – | clathrin (human (endogenous in MCF10A))

These are yes or no findings as the source states them, for the method shown. Binding seen in cells or lysates may run through a third protein. A result given as binding can be weak or reduced; the word gives no strength. For some assays here: Sequences can lack the tags named with a protein.
